For at least one compound, name, drawing or mass did not settle the structure.
Experiment: Aerosol droplet size (mass median diameter, geometric standard deviation) by laser diffraction
Format: physicochemical
Conditions: VibrENT aerosol generator; Example 10

In the case of `C[C@H]1COc2c(N3CCN(C)CC3)c(F)cc3c(=O)c(C(=O)O)cn1c23` [Levofloxacin, reference compound], the “mass median diameter of the aerosol” value is reported as 3.4 μm.
